According to article PMC10587436, “A bacterial quorum sensing signal is a potent inhibitor of de novo pyrimidine biosynthesis in the globally abundant Emiliania huxleyi” (Frontiers in Microbiology, 2023):

System: T1, E. huxleyi dihydroorotate dehydrogenase (EhDHODH)
T1 construct: ΔN20EhDHODH (first 20 residues truncated, start at residue 21; N-terminal eight-residue histidine tag)
Assay: steady-state kinetics, DCIP assay (apparent Km)
Assay type: biochemical, Emiliania huxleyi

Structure (SMILES) | Km [µM]
O=C1C[C@@H](C(=O)O)NC(=O)N1 [L-dihydroorotate] | 170 ± 30
CCCCCCCCCCC1=C(C)C(=O)C(OC)=C(OC)C1=O [decylubiquinone] | 8 ± 1
